Article doi:10.1101/2025.05.30.657104
Results are given in words; binding and its absence hold for the method and conditions named. In cells and extracts the contact can be indirect. A result given as binding can be weak or reduced; the word gives no strength.

The chains behind the UniProt entries cited, without tags or fusion partners.
UniProt P10644: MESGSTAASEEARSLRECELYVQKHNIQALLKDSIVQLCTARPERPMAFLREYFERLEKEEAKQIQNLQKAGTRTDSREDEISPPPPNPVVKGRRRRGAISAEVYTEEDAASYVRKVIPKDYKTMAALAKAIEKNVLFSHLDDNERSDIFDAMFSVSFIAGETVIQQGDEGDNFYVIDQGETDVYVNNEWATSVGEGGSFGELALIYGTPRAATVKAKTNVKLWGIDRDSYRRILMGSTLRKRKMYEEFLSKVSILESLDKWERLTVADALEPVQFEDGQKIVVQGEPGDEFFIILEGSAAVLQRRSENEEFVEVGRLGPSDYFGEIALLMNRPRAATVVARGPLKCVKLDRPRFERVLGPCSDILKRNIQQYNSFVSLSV

How the values were obtained:
[1] = target: Protein kinase C beta II (PKCβII) WT, Rluc PCA reporter (UniProt P05771); assay: split reporter
[2] = target: PKA RIα, Rluc PCA reporter (UniProt P10644); assay: split reporter

binding [1]: binds
binding [2]: binds
Substance: Protein kinase C beta II D465H (PKCβII D465H), Rluc PCA reporter (from UniProt P05771-2) (enzyme)
